Experimental data: PubChem BioAssay AID1053208 (Peter MacCallum Cancer Centre, 2014)

- Screen: 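Find knock-downs that sensitise mouse osteosarcoma cells to doxorubicin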 (primary screen)
- Cell system: mouse osteosarcoma cells, early-passage culture from an engineered mouse model of fibroblastic bone tumour
- Knock-down reagent: siRNA pool against mouse genes, 40 nM
- Time to read-out: about 120 h (48 h before drug, then 72 h with drug)
- Treatment: doxorubicin 100 nM for 72 h, roughly 30-40% inhibitory dose
- Measurement: 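Viability read as ATP luminescence after 72 h of 100 nM doxorubicin or none, duplicate wells averaged, scaled to non-targeting siRNA, then expressed as robust z-scores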
- Direction: viability z-score with doxorubicin: higher = more viable cells under doxorubicin; viability z-score without drug: higher = more viable cells with knock-down alone
- Hit rule: 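Called active if knock-down leaves viability unchanged without drug (z within -2 to 2) but lowers it with doxorubicin (z at or under -2)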
In all, the deposit lists about 17,000 reagents; shown is an unselected part. Of all reagents, 788 (4.7%) got an active call. 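Calls rest on z-score classes alone; an extra cut-off of viability at most 70% of control was not applied to them.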 Not all columns of the deposit are shown.

gene	combined z-score class	viability z-score with doxorubicin	viability z-score without drug	activity call
Usp17lb	no change with or without drug	-0.79	1.52	inactive
Zfx	high cell count with and without drug	3.26	2.36	inactive
Or4f57	low cell count with doxorubicin only	-2.14	-1.52	active
Eif5b	low cell count with and without drug	-2.02	-3.54	inactive
Sytl3	no change with or without drug	0.67	-0.84	inactive
Mrgprh	no change with or without drug	-1.24	-1.18	inactive
Csf2rb2	no change with or without drug	0.34	1.18	inactive
Pcgf5	no change with or without drug	0.45	-1.18	inactive
Gmeb2	no change with or without drug	1.12	-0.51	inactive
Slc38a1	no change with or without drug	-1.12	0.17	inactive
Dpy19l1	no change with or without drug	-1.01	-0.17	inactive
Ap4s1	no change with or without drug	-0.22	-1.52	inactive
Pdpr	no change with or without drug	-1.69	0.17	inactive
Dnah14	no change with or without drug	0.45	-0.34	inactive
Cdt1	no change with or without drug	1.57	-0.84	inactive
Bpnt1	no change with or without drug	0.45	-0.17	inactive
Snx30	no change with or without drug	1.35	0.84	inactive
Sde2	no change with or without drug	0	-0.84	inactive
Drc3	no change with or without drug	0.22	1.18	inactive
Lman1l	no change with or without drug	0.22	-0.17	inactive
Arl8a	no change with or without drug	-1.12	-0.51	inactive
Cdipt	no change with or without drug	-0.56	-0.51	inactive
Gpr15	no change with or without drug	0.79	0.51	inactive
Mrpl40	low cell count without drug only	-1.35	-2.36	inactive
Wnt10a	no change with or without drug	0	1.18	inactive
Ints4	no change with or without drug	0.34	-0.51	inactive
Zfp326	high cell count with and without drug	3.04	2.02	inactive
Or52e5	no change with or without drug	-0.22	-0.17	inactive
Rgs20	low cell count without drug only	-1.35	-4.72	inactive
Rps3a1	low cell count with and without drug	-7.31	-6.24	inactive
Gpr171	no change with or without drug	0.11	0.17	inactive
Twf1	no change with or without drug	-0.45	-1.85	inactive

8 of these entries in another layout.
{"gene":"Sde2","combined z-score class":"no change with or without drug","viability z-score with doxorubicin":0,"viability z-score without drug":-0.84,"activity call":"inactive"}
{"gene":"Drc3","combined z-score class":"no change with or without drug","viability z-score with doxorubicin":0.22,"viability z-score without drug":1.18,"activity call":"inactive"}
{"gene":"Lman1l","combined z-score class":"no change with or without drug","viability z-score with doxorubicin":0.22,"viability z-score without drug":-0.17,"activity call":"inactive"}
{"gene":"Arl8a","combined z-score class":"no change with or without drug","viability z-score with doxorubicin":-1.12,"viability z-score without drug":-0.51,"activity call":"inactive"}
{"gene":"Cdipt","combined z-score class":"no change with or without drug","viability z-score with doxorubicin":-0.56,"viability z-score without drug":-0.51,"activity call":"inactive"}
{"gene":"Gpr15","combined z-score class":"no change with or without drug","viability z-score with doxorubicin":0.79,"viability z-score without drug":0.51,"activity call":"inactive"}
{"gene":"Mrpl40","combined z-score class":"low cell count without drug only","viability z-score with doxorubicin":-1.35,"viability z-score without drug":-2.36,"activity call":"inactive"}
{"gene":"Wnt10a","combined z-score class":"no change with or without drug","viability z-score with doxorubicin":0,"viability z-score without drug":1.18,"activity call":"inactive"}

Further reagents:
gene	combined z-score class	viability z-score with doxorubicin	viability z-score without drug	activity call
Prpsap2	no change with or without drug	0.9	0.51	inactive
Gstz1	no change with or without drug	-1.46	-0.84	inactive
Cuta	no change with or without drug	1.91	-0.67	inactive
Gabarapl1	no change with or without drug	-1.8	-1.18	inactive
Or10a3m	no change with or without drug	-0.9	-0.17	inactive
Ccdc122	no change with or without drug	-1.35	1.85	inactive
Or4a47	no change with or without drug	-0.67	-1.35	inactive
Kdelr3	no change with or without drug	-0.22	-0.17	inactive
Or9g3	low cell count without drug only	-1.57	-2.7	inactive
Kel	no change with or without drug	1.12	1.01	inactive
Sdccag8	high cell count without drug only	1.69	2.19	inactive
Fam32a	no change with or without drug	0	1.35	inactive
Fxyd1	no change with or without drug	-0.11	-0.17	inactive
Tifab	no change with or without drug	0	-1.18	inactive
Cideb	low cell count with doxorubicin only	-2.14	-0.51	active
Rab18	no change with or without drug	0.34	1.18	inactive
Acot4	high cell count with doxorubicin only	2.36	-0.17	inactive
Morc2b	no change with or without drug	-0.9	-0.84	inactive
